Measurements published in PMC11395162.
These are yes or no findings as the source states them, for the method shown. In cells and extracts the contact can be indirect. Some results given as binding are weak or reduced against the parent protein; the word gives no strength. For part of these data: Tags and fused reporters may be left off the sequences shown. Values belong to the substance of their own block, whether it stands above or below them.

Chains of the proteins cited; added tags and fusions are not shown. Lines headed by an entry give the natural chain unless they say otherwise; changes in a name come on top.
UniProt Q9UNE7: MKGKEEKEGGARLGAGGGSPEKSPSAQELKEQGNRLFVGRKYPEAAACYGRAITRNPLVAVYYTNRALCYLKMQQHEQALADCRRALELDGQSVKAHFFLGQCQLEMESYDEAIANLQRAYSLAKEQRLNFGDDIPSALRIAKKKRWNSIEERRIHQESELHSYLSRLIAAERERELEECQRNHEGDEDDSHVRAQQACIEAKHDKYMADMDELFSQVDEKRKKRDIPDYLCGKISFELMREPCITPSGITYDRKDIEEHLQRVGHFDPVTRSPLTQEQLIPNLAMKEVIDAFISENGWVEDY

Legend:
[1] = molecular target: T1, UHRF1, endogenous in TFK1 and HuCCT1 cells (human (endogenous in TFK1 and HuCCT1)) (UniProt Q96T88); experiment: co-IP; endogenous proteins in TFK1 and HuCCT1 cells; IP with UHRF1/STUB1 antibody, IgG as control; immunoblot
T1 sequence: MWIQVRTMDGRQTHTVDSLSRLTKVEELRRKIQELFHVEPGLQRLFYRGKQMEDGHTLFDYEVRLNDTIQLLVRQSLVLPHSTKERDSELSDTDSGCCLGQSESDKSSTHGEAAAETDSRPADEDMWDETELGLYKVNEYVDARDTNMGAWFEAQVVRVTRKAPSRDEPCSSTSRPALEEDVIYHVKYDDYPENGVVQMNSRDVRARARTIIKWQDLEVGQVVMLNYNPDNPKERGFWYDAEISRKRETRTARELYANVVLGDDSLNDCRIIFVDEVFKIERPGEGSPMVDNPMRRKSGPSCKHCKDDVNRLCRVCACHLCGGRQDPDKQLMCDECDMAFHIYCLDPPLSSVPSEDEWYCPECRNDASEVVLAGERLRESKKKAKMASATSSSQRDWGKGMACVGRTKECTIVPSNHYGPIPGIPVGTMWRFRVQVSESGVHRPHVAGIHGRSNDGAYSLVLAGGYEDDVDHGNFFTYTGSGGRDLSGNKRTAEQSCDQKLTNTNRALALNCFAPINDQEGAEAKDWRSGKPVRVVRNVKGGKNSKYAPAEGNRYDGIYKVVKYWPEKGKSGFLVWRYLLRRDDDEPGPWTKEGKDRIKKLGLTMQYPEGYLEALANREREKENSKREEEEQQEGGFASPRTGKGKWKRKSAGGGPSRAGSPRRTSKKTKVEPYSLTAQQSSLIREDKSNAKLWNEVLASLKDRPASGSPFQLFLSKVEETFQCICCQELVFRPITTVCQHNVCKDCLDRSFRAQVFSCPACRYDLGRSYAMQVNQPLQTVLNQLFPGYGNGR

[2] = molecular target: T2, UHRF1, full length, transfected partner of the STUB1 fragments (Fig. 1G, I) (human) (UniProt Q96T88); experiment: co-IP; HEK293T cells transfected with tagged full-length or truncated UHRF1 and STUB1; lysates immunoprecipitated with anti-Flag or anti-HA antibodies on A/G magnetic beads, 4 °C, 12 h; immunoblot
T2 sequence: T1 sequence

GST-UHRF1 (human) = molecular target: T3, GST-UHRF1 (human) (UniProt Q96T88); experiment: pull-down; GST, GST-STUB1 or GST-UHRF1 from E. coli BL21 on GST magnetic beads, incubated with HEK293T cell lysate at 4 °C for 4 h; immunoblot; only the target purified
T3 sequence: T1 sequence

[3] = molecular target: T4, UHRF1 RING domain (aa724-793), truncated fragment (human) (UniProt Q96T88); experiment: co-IP; HEK293T cells transfected with tagged full-length or truncated UHRF1 and STUB1; lysates immunoprecipitated with anti-Flag or anti-HA antibodies on A/G magnetic beads, 4 °C, 12 h; immunoblot
T4 sequence: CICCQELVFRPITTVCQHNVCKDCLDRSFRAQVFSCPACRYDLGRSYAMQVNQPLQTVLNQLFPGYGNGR

[4] = molecular target: T5, UHRF1 SRA domain (aa417-584), truncated fragment (human) (UniProt Q96T88); experiment: as above
T5 sequence: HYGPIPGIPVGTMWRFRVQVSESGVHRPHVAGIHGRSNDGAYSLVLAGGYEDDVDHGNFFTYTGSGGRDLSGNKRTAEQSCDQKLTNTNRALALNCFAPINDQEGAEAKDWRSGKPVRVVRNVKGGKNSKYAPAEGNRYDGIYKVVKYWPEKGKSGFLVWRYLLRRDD

[5] = molecular target: T6, Ubiquitin like with PHD and ring finger domains 1 (UHRF1), Flag-tagged, full length (human) (UniProt Q96T88); experiment: as above
T6 sequence: T1 sequence

binding [1]: binds
Substance: STUB1, endogenous (from UniProt Q9UNE7 1-303)

binding [2]: binds
Substance: STUB1 TPR domain (aa26-127), truncated fragment (from UniProt Q9UNE7 26-127) (domain or fragment)

binding (GST-UHRF1 (human)): binds
Substance: STUB1 in HEK293T cell lysate (prey of the GST pull-down) (from UniProt Q9UNE7 1-303)

binding [3]: binds
binding [4]: binds
binding [5]: binds
Substance: STIP1 homology and U-Box containing protein 1 (STUB1), HA-tagged, full length (from UniProt Q9UNE7 1-303)
